Measurements published in the supplement of paper PMC8104966.
The other results are listed elsewhere or left out. Single values are uncertain here, since repeats match poorly.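 U2OS cells expressing ACE2 were combined with U2OS cells expressing full-length spike, and imaging quantified fusion as the fraction of nuclei displaying both cell types' fluorescent markers. Non-toxic compounds with a fusion z-score under -3, i.e., over three standard deviations below the plate's DMSO wells, are called inhibitory hits.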

Each compound was assayed on U2OS ACE2 x SARS-CoV-2 spike co-culture (assay: cell-cell fusion (fraction fused) z-score vs plate DMSO control; higher = more fusion). Settings: 30 µM; 5 h; toxicity class: non-toxic, passed QC.

Compound	cell-cell fusion (z-score)
COc1ccnc(CS(=O)c2nc3cc(OC(F)F)ccc3[n-]2)c1OC.O.[Na+] (stereo not drawn) [Pantoprazole Sodium Hydrate]	inactive: 2.79
Cc1cc([C@@H](C)Nc2ccccc2C(=O)O)c2nc(N3CCOCC3)cc(=O)n2c1	inactive: -0.544
N#CC[C@H](C1CCCC1)n1cc(-c2ncnc3[nH]ccc23)cn1 [Ruxolitinib]	inactive: -2.83
C[C@H]1CC2C3CCC4=CC(=O)C=C[C@]4(C)[C@@]3(Cl)[C@@H](O)C[C@]2(C)[C@@]1(O)C(=O)CO (stereo partly drawn) [Beclomethasone]	inactive: 2.5
C#C[C@@H]1CC2C3CCC4=C[C@@H](OC(C)=O)CCC4C3CC[C@]2(C)[C@H]1OC(C)=O (stereo partly drawn)	inactive: 2.31
CCCCCN(C)CCC(O)(P(=O)([O-])O)P(=O)(O)O.[Na+] [Ibandronate sodium]	inactive: 1.46
N[C@H](Cc1cc(I)c(Oc2ccc(O)c(I)c2)c(I)c1)C(=O)O	inactive: 3.95
Cl.O=C(CCCN1CCC(O)(c2cccc(C(F)(F)F)c2)CC1)c1ccc(F)cc1 [Trifluperidol hydrochloride]	inactive: -2
O=c1[nH]c(=O)n(C2CCCO2)cc1F (stereo not drawn) [Tegafur]	inactive: -0.357
Cl.OCc1c[nH]cn1 [4-Imidazolemethanol hydrochloride]	inactive: 1.58
CC(C)(Sc1cc(C(C)(C)C)c(O)c(C(C)(C)C)c1)Sc1cc(C(C)(C)C)c(O)c(C(C)(C)C)c1 [Probucol]	inactive: 4.19
NCc1ccccc1CC(=O)NC1C(=O)N2C(C(=O)O)=C(CSc3nnnn3CC(=O)O)CSC12 (stereo not drawn)	inactive: 0.899
CC(C(=O)O)c1ccc(C(=O)c2cccs2)cc1 (stereo not drawn)	inactive: 1.63
Cc1ccc(Cl)c(Nc2ccccc2C(=O)[O-])c1Cl.[Na+] [Meclofenamic acid sodium]	inactive: 1.47
N.N.O=C1[O][Pt][O]C(=O)C12CCC2 [Carboplatin]	inactive: 2.14
O=C(NOCC1CC1)c1cc(Br)c(F)c(F)c1Nc1ccc(I)cc1Cl	inactive: 2.97
CC(C)c1c(O)ccc2c1CCC1C(C)(C)CCC[C@]21C (stereo partly drawn)	inactive: 3.01
CC(C)(C)c1ccc(C(=O)CCCN2CCC(OC(c3ccccc3)c3ccccc3)CC2)cc1 [Ebastine]	inactive: 2.16
CC(C)c1ccc2c(c1)CCC1[C@](C)(CN)CCC[C@]21C.O=S(=O)(O)O (stereo partly drawn)	inactive: 0.966
CC(=O)OC/C=C(C)/C=C/C=C(C)/C=C/C1=C(C)CCCC1(C)C	inactive: 3.16
C=C[C@](C)(O)CC[C@@H]1[C@@]2(C)CCCC(C)(C)[C@@H]2CC[C@]1(C)O	inactive: 0.739
CN(C)[C@@H]1C(O)=C(C(N)=O)C(=O)[C@@]2(O)C(O)=C3C(=O)c4c(O)ccc(Cl)c4[C@@H](O)[C@H]3C[C@@H]12.Cl [Demeclocycline hydrochloride]	inactive: 0.518

In a second layout: entries from further up.
Compound | cell-cell fusion (z-score)
COc1ccnc(CS(=O)c2nc3cc(OC(F)F)ccc3[n-]2)c1OC.O.[Na+] (stereo not drawn) [Pantoprazole Sodium Hydrate] | inactive: 2.79
C[C@H]1CC2C3CCC4=CC(=O)C=C[C@]4(C)[C@@]3(Cl)[C@@H](O)C[C@]2(C)[C@@]1(O)C(=O)CO (stereo partly drawn) [Beclomethasone] | inactive: 2.5
C#C[C@@H]1CC2C3CCC4=C[C@@H](OC(C)=O)CCC4C3CC[C@]2(C)[C@H]1OC(C)=O (stereo partly drawn) | inactive: 2.31
CCCCCN(C)CCC(O)(P(=O)([O-])O)P(=O)(O)O.[Na+] [Ibandronate sodium] | inactive: 1.46
O=c1[nH]c(=O)n(C2CCCO2)cc1F (stereo not drawn) [Tegafur] | inactive: -0.357
Cl.OCc1c[nH]cn1 [4-Imidazolemethanol hydrochloride] | inactive: 1.58
CC(C)(Sc1cc(C(C)(C)C)c(O)c(C(C)(C)C)c1)Sc1cc(C(C)(C)C)c(O)c(C(C)(C)C)c1 [Probucol] | inactive: 4.19
CC(C(=O)O)c1ccc(C(=O)c2cccs2)cc1 (stereo not drawn) | inactive: 1.63
N.N.O=C1[O][Pt][O]C(=O)C12CCC2 [Carboplatin] | inactive: 2.14
O=C(NOCC1CC1)c1cc(Br)c(F)c(F)c1Nc1ccc(I)cc1Cl | inactive: 2.97
CC(C)c1c(O)ccc2c1CCC1C(C)(C)CCC[C@]21C (stereo partly drawn) | inactive: 3.01
CC(C)c1ccc2c(c1)CCC1[C@](C)(CN)CCC[C@]21C.O=S(=O)(O)O (stereo partly drawn) | inactive: 0.966
CC(=O)OC/C=C(C)/C=C/C=C(C)/C=C/C1=C(C)CCCC1(C)C | inactive: 3.16

The listing continues.

Compound	cell-cell fusion (z-score)
CCC(/C=C/[C@@H](C)[C@H]1CCC2C3CC=C4C[C@@H](O)CC[C@]4(C)C3CC[C@@]21C)C(C)C (stereo partly drawn)	inactive: 2.68
O=c1ccc2ccc(OCCCCN3CCN(c4cccc5sccc45)CC3)cc2[nH]1 [Brexpiprazole]	inactive: -0.968
C=C(C)[C@H]1CN[C@H](C(=O)O)[C@H]1CC(=O)O [Kainic acid]	inactive: 2.34
O=P([O-])(O)C(Cl)(Cl)P(=O)([O-])O.[Na+].[Na+] [Clodronic acid]	inactive: 1.55
C[C@H]1c2cccc(O)c2C(=O)C2=C(O)[C@]3(O)C(=O)C(C(N)=O)=C(O)[C@@H](N(C)C)[C@@H]3[C@@H](O)[C@@H]21.Cl [Doxycycline hydrochloride]	inactive: 1.45
C[N+]1(C)C2CCC1CC(OC(=O)C(CO)c1ccccc1)C2.O=[N+]([O-])[O-] (stereo not drawn)	inactive: 2.37
C[N+]1(C)C2CCC1CC(OC(=O)C(CO)c1ccccc1)C2.O=[N+]([O-])[O-] (stereo not drawn) [Atropine methyl nitrate]	inactive: 2.24
COc1ccc(CNc2nc(N3CCC[C@H]3CO)ncc2C(=O)NCc2ncccn2)cc1Cl [Avanafil]	active: -5.48
CC/C(=C(\c1ccccc1)c1ccc(OCCN(C)C)cc1)c1ccccc1.O=C(O)CC(O)(CC(=O)O)C(=O)O [Tamoxifen Citrate (Nolvadex)]	inactive: 1.62
O=C(O)c1cc(=O)c2ccccc2o1	inactive: 1.4
CO[C@H]1C[C@@H]2CC[C@@H](C)[C@@](O)(O2)C(=O)C(=O)N2CCCC[C@H]2C(=O)O[C@H]([C@H](C)C[C@@H]2CC[C@@H](O)[C@H](OC)C2)CC(=O)[C@H](C)/C=C(\C)[C@@H](O)[C@@H](OC)C(=O)[C@H](C)C[C@H](C)/C=C/C=C/C=C/1C [Rapamycin]	active: -6.13
O=C1[N-]C(=O)C(c2ccccc2)(c2ccccc2)N1.[Na+]	inactive: 0.581
CCN(CC)CCOC(=O)c1ccc(N)cc1Cl.Cl [Chloroprocaine HCl]	inactive: 3.66
OCC(O)[C@@H](O)CO (stereo partly drawn)	inactive: 2.31
CC(=O)O[C@H]1CC2CCC3C(CC[C@@]4(C)C3C[C@H]([N+]3(C)CCCCC3)[C@@H]4OC(C)=O)[C@@]2(C)C[C@@H]1N1CCCCC1.[Br-] (stereo partly drawn)	inactive: 1.15
Nc1ccc(S(=O)(=O)Nc2ccc(Cl)nn2)cc1	inactive: 1.47
OCCN1C[C@H](O)[C@@H](O)[C@H](O)[C@H]1CO [Miglitol]	inactive: 2.8
Cl.c1ccc(CC2=NCCN2)cc1	inactive: 1.34
CCCN1CCCC[C@H]1C(=O)Nc1c(C)cccc1C.Cl [Ropivacaine hydrochloride]	inactive: 5.2
COc1cc(C(C)=O)ccc1OCCCN1CCC(c2noc3cc(F)ccc23)CC1 [Iloperidone]	inactive: 2.73
O=C(O)c1ccc(Nc2ncc3c(n2)-c2ccc(Cl)cc2C(c2c(F)cccc2F)=NC3)cc1	inactive: 2.16
